This is an account of results in US20140017253A1.

Amino acid sequences for entries named in this document (tags omitted). A change or cut given only in a name is not applied to a line headed by its entry.
UniProt O75473: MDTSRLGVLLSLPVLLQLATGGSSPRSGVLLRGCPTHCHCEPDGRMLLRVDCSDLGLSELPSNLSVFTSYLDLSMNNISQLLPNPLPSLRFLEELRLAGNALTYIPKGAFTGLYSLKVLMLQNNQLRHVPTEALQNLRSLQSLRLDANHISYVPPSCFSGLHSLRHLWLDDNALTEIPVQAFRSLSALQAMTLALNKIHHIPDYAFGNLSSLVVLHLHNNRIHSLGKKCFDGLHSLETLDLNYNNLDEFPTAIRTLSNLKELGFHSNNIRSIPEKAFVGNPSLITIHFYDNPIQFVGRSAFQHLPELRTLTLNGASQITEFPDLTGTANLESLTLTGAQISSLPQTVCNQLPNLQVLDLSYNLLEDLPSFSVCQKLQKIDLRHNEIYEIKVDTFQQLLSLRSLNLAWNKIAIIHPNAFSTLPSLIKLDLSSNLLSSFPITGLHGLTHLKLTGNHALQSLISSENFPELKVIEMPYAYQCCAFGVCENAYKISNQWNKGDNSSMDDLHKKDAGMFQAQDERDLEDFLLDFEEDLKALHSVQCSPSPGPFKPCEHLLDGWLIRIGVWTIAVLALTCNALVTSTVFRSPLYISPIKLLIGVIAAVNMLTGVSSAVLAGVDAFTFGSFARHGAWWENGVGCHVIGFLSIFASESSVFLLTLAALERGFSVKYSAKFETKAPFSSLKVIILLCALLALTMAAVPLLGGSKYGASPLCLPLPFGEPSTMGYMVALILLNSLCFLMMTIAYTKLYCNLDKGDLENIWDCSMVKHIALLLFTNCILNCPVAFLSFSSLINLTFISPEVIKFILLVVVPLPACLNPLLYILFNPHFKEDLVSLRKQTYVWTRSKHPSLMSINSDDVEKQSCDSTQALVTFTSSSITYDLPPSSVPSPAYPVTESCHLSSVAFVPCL

No constants are given. Whether binding was seen depends on the method and setting. Some binding calls cover weakened binding; strength is not graded here. Where a sequence is shown, tags or fusion partners need not be part of it.

For the test, the target named is T1, FLAG-LGR5-CD4TM-GFP (cell surface human LGR5 on transfected HEK-293 cells) (human) (UniProt O75473+P01730).
T1 sequence: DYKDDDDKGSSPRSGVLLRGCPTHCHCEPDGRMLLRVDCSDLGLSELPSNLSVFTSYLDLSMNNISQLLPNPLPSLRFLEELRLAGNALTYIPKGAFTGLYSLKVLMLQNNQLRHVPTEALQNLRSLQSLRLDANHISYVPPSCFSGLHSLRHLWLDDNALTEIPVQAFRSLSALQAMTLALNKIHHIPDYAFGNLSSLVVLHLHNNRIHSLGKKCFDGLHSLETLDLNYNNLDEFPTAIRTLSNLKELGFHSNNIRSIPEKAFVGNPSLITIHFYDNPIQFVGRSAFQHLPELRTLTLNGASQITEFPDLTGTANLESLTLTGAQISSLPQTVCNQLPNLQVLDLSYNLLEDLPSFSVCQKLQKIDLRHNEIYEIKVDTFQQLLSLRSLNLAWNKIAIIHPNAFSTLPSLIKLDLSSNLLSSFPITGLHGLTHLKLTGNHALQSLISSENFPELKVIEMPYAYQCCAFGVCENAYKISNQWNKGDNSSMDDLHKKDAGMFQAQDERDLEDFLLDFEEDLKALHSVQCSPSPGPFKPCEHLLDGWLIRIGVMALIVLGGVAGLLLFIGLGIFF
Put plainly: FACS on HEK-293T cells transfected with FLAG-LGR5-CD4TM-GFP; 10 nM RSPO3-biotin without antibody, detected with PE-conjugated streptavidin.

B1: recombinant RSPO3-biotin fusion protein (ligand, UniProt Q9BXY4 22-272, looked up)
chain: QNASRGRRQRRMHPNVSQGCQGGCATCSDYNGCLSCKPRLFFALERIGMKQIGVCLSSCPSGYYGTRYPDINKCTKCKADCDTCFNKNFCTKCKSGFYLHLGKCLDNCPEGLEANNHTMECVSIVHCEVSEWNPWSPCTKKGKTCGFKRGTETRVREIIQHPSAKGNLCPPTNETRKCTVQRKKCQKGERGKKGRERKRKKPNKGESKEAIPDSKSLESSKEIPEQRENKQQQKKRKVQDKQKSVSVSTVH
modifications: biotin (site and way of attachment not stated)
For B1, the binding entry was “binds”.
